For seven molecules, binding results are on record in US20100204091A1.

Results are given in words; binding and its absence hold for the method and conditions named. In cells and extracts the contact can be indirect. Some entries that bind do so weakly or less than the wild type. For part of these data: Where a sequence is shown, tags or fusion partners need not be part of it.

Experiment [1] concerns the target NF-κB-inducing kinase, NIK, (MAP3K14) (human) (UniProt Q99558). The experiment can be described thus: co-immunoprecipitation with anti-NIK from transfected HeLa cells.
For experiment [2] the target is unchanged. The experiment can be described thus: co-immunoprecipitation with NIK from Ramos cells expressing myc-tagged NIK after CD70; also from BJAB cells after CD40L.
Another experiment concerns the target T1, FLAG tagged TRAF2 (UniProt Q12933).
T1 sequence (looked up): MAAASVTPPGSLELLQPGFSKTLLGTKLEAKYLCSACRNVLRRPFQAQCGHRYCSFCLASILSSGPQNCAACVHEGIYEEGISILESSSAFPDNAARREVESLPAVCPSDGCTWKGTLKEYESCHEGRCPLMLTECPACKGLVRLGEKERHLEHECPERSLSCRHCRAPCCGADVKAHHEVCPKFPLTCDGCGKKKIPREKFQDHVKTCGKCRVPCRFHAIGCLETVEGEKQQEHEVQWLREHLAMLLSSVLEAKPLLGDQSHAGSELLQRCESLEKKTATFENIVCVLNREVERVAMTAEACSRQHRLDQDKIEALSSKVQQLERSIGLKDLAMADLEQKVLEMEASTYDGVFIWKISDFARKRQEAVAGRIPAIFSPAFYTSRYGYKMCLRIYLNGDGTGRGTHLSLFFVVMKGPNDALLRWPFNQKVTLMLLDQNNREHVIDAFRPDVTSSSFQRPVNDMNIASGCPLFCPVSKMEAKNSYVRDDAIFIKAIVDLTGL
The experiment in a line: co-immunoprecipitation with anti FLAG-M2 beads from HEK 293T cells, anti HIS blot.

Experiment [3] concerns the target NF-κB-inducing kinase, NIK, (MAP3K14) (human) (UniProt Q99558). The experiment can be described thus: co-immunoprecipitation from Ramos cells after CD70; also BJAB cells (NIK stable, SIVA2 transduced) after long term CD40 ligand, but not TRAIL.
A further experiment deals with T2, SIVA1 (human) (UniProt O15304).
T2 sequence: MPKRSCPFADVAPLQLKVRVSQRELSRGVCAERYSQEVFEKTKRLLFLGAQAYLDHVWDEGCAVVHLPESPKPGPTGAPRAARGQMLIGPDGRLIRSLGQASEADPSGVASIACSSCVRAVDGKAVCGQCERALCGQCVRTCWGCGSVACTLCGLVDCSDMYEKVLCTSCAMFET
The experiment in a line: co-immunoprecipitation from transiently transfected HEK 293T cells.

Experiment [4] addresses T3, SIVA2 (human) (UniProt O15304).
T3 sequence: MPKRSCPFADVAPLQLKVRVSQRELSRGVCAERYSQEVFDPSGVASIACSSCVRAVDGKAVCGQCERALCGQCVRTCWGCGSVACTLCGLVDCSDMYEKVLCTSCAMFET
The experiment in a line: co-immunoprecipitation with anti-NIK from HeLa cells, SIVA2 blot.

Experiment [5] addresses T3, SIVA2 (human). The experiment can be described thus: co-precipitation of NIK, SIVA2 and TRAF3 from transiently transfected HEK 293T cells (anti FLAG IP of SIVA2, anti-TRAF3 blot).

B1: SIVA-C (C-terminal part of SIVA, amino acids 123-175 in SIVA1 or 58-110 in SIVA2) (protein)
chain: KAVCGQCERALCGQCVRTCWGCGSVACTLCGLVDCSDMYEKVLCTSCAMFET
For the molecule B1, in experiment [1], the binding entry is recorded as “binds”.

B2: SIVA2 (protein)
chain: MPKRSCPFADVAPLQLKVRVSQRELSRGVCAERYSQEVFDPSGVASIACSSCVRAVDGKAVCGQCERALCGQCVRTCWGCGSVACTLCGLVDCSDMYEKVLCTSCAMFET
Take B2: the binding result (in experiment [2]; with FLAG tagged TRAF2; in experiment [3]) was “binds” each time.

B3: aly NIK (human NIK with a mutation (G860R) corresponding to the mouse aly mutation) (enzyme, UniProt Q99558 1-947, looked up)
chain: MAVMEMACPGAPGSAVGQQKELPKAKEKTPPLGKKQSSVYKLEAVEKSPVFCGKWEILNDVITKGTAKEGSEAGPAAISIIAQAECENSQEFSPTFSERIFIAGSKQYSQSESLDQIPNNVAHATEGKMARVCWKGKRRSKARKKRKKKSSKSLAHAGVALAKPLPRTPEQESCTIPVQEDESPLGAPYVRNTPQFTKPLKEPGLGQLCFKQLGEGLRPALPRSELHKLISPLQCLNHVWKLHHPQDGGPLPLPTHPFPYSRLPHPFPFHPLQPWKPHPLESFLGKLACVDSQKPLPDPHLSKLACVDSPKPLPGPHLEPSCLSRGAHEKFSVEEYLVHALQGSVSSGQAHSLTSLAKTWAARGSRSREPSPKTEDNEGVLLTEKLKPVDYEYREEVHWATHQLRLGRGSFGEVHRMEDKQTGFQCAVKKVRLEVFRAEELMACAGLTSPRIVPLYGAVREGPWVNIFMELLEGGSLGQLVKEQGCLPEDRALYYLGQALEGLEYLHSRRILHGDVKADNVLLSSDGSHAALCDFGHAVCLQPDGLGKSLLTGDYIPGTETHMAPEVVLGRSCDAKVDVWSSCCMMLHMLNGCHPWTQFFRGPLCLKIASEPPPVREIPPSCAPLTAQAIQEGLRKEPIHRVSAAELGGKVNRALQQVGGLKSPWRGEYKEPRHPPPNQANYHQTLHAQPRELSPRAPGPRPAEETTGRAPKLQPPLPPEPPEPNKSPPLTLSKEESGMWEPLPLSSLEPAPARNPSSPERKATVPEQELQQLEIELFLNSLSQPFSLEEQEQILSCLSIDSLSLSDDSEKNPSKASQSSRDTLSSGVHSWSSQAEARSSSWNMVLARGRPTDTPSYFNRVKVQIQSLNGEHLHIREFHRVKVGDIATGISSQIPAAAFSLVTKDGQPVRYDMEVPDSGIDLQCTLAPDGSFAWSWRVKHGQLENRP
On to B3, for which the binding result with SIVA1 (human) is recorded as “binds”.

B4: NIK 304* (amino acids 332-335, SVEE mutated to SVAA) (enzyme, human, UniProt Q99558 1-947, looked up)
chain: MAVMEMACPGAPGSAVGQQKELPKAKEKTPPLGKKQSSVYKLEAVEKSPVFCGKWEILNDVITKGTAKEGSEAGPAAISIIAQAECENSQEFSPTFSERIFIAGSKQYSQSESLDQIPNNVAHATEGKMARVCWKGKRRSKARKKRKKKSSKSLAHAGVALAKPLPRTPEQESCTIPVQEDESPLGAPYVRNTPQFTKPLKEPGLGQLCFKQLGEGLRPALPRSELHKLISPLQCLNHVWKLHHPQDGGPLPLPTHPFPYSRLPHPFPFHPLQPWKPHPLESFLGKLACVDSQKPLPDPHLSKLACVDSPKPLPGPHLEPSCLSRGAHEKFSVAAYLVHALQGSVSSGQAHSLTSLAKTWAARGSRSREPSPKTEDNEGVLLTEKLKPVDYEYREEVHWATHQLRLGRGSFGEVHRMEDKQTGFQCAVKKVRLEVFRAEELMACAGLTSPRIVPLYGAVREGPWVNIFMELLEGGSLGQLVKEQGCLPEDRALYYLGQALEGLEYLHSRRILHGDVKADNVLLSSDGSHAALCDFGHAVCLQPDGLGKSLLTGDYIPGTETHMAPEVVLGRSCDAKVDVWSSCCMMLHMLNGCHPWTQFFRGPLCLKIASEPPPVREIPPSCAPLTAQAIQEGLRKEPIHRVSAAELGGKVNRALQQVGGLKSPWRGEYKEPRHPPPNQANYHQTLHAQPRELSPRAPGPRPAEETTGRAPKLQPPLPPEPPEPNKSPPLTLSKEESGMWEPLPLSSLEPAPARNPSSPERKATVPEQELQQLEIELFLNSLSQPFSLEEQEQILSCLSIDSLSLSDDSEKNPSKASQSSRDTLSSGVHSWSSQAEARSSSWNMVLARGRPTDTPSYFNGVKVQIQSLNGEHLHIREFHRVKVGDIATGISSQIPAAAFSLVTKDGQPVRYDMEVPDSGIDLQCTLAPDGSFAWSWRVKHGQLENRP
For B4, the binding result in the experiment with SIVA2 (human) [4] is reported as “binds”.

B5: NIK 704* (amino acids 702-705 PAEE mutated to PAAA) (enzyme, human, UniProt Q99558 1-947, looked up)
chain: MAVMEMACPGAPGSAVGQQKELPKAKEKTPPLGKKQSSVYKLEAVEKSPVFCGKWEILNDVITKGTAKEGSEAGPAAISIIAQAECENSQEFSPTFSERIFIAGSKQYSQSESLDQIPNNVAHATEGKMARVCWKGKRRSKARKKRKKKSSKSLAHAGVALAKPLPRTPEQESCTIPVQEDESPLGAPYVRNTPQFTKPLKEPGLGQLCFKQLGEGLRPALPRSELHKLISPLQCLNHVWKLHHPQDGGPLPLPTHPFPYSRLPHPFPFHPLQPWKPHPLESFLGKLACVDSQKPLPDPHLSKLACVDSPKPLPGPHLEPSCLSRGAHEKFSVEEYLVHALQGSVSSGQAHSLTSLAKTWAARGSRSREPSPKTEDNEGVLLTEKLKPVDYEYREEVHWATHQLRLGRGSFGEVHRMEDKQTGFQCAVKKVRLEVFRAEELMACAGLTSPRIVPLYGAVREGPWVNIFMELLEGGSLGQLVKEQGCLPEDRALYYLGQALEGLEYLHSRRILHGDVKADNVLLSSDGSHAALCDFGHAVCLQPDGLGKSLLTGDYIPGTETHMAPEVVLGRSCDAKVDVWSSCCMMLHMLNGCHPWTQFFRGPLCLKIASEPPPVREIPPSCAPLTAQAIQEGLRKEPIHRVSAAELGGKVNRALQQVGGLKSPWRGEYKEPRHPPPNQANYHQTLHAQPRELSPRAPGPRPAAATTGRAPKLQPPLPPEPPEPNKSPPLTLSKEESGMWEPLPLSSLEPAPARNPSSPERKATVPEQELQQLEIELFLNSLSQPFSLEEQEQILSCLSIDSLSLSDDSEKNPSKASQSSRDTLSSGVHSWSSQAEARSSSWNMVLARGRPTDTPSYFNGVKVQIQSLNGEHLHIREFHRVKVGDIATGISSQIPAAAFSLVTKDGQPVRYDMEVPDSGIDLQCTLAPDGSFAWSWRVKHGQLENRP
B5: in the experiment with SIVA2 (human) [4], the binding entry is given as “binds”.

B6: kinase-dead NIK (NIK KK429,430AA) (enzyme, human, UniProt Q99558 1-947, looked up)
chain: MAVMEMACPGAPGSAVGQQKELPKAKEKTPPLGKKQSSVYKLEAVEKSPVFCGKWEILNDVITKGTAKEGSEAGPAAISIIAQAECENSQEFSPTFSERIFIAGSKQYSQSESLDQIPNNVAHATEGKMARVCWKGKRRSKARKKRKKKSSKSLAHAGVALAKPLPRTPEQESCTIPVQEDESPLGAPYVRNTPQFTKPLKEPGLGQLCFKQLGEGLRPALPRSELHKLISPLQCLNHVWKLHHPQDGGPLPLPTHPFPYSRLPHPFPFHPLQPWKPHPLESFLGKLACVDSQKPLPDPHLSKLACVDSPKPLPGPHLEPSCLSRGAHEKFSVEEYLVHALQGSVSSGQAHSLTSLAKTWAARGSRSREPSPKTEDNEGVLLTEKLKPVDYEYREEVHWATHQLRLGRGSFGEVHRMEDKQTGFQCAVAAVRLEVFRAEELMACAGLTSPRIVPLYGAVREGPWVNIFMELLEGGSLGQLVKEQGCLPEDRALYYLGQALEGLEYLHSRRILHGDVKADNVLLSSDGSHAALCDFGHAVCLQPDGLGKSLLTGDYIPGTETHMAPEVVLGRSCDAKVDVWSSCCMMLHMLNGCHPWTQFFRGPLCLKIASEPPPVREIPPSCAPLTAQAIQEGLRKEPIHRVSAAELGGKVNRALQQVGGLKSPWRGEYKEPRHPPPNQANYHQTLHAQPRELSPRAPGPRPAEETTGRAPKLQPPLPPEPPEPNKSPPLTLSKEESGMWEPLPLSSLEPAPARNPSSPERKATVPEQELQQLEIELFLNSLSQPFSLEEQEQILSCLSIDSLSLSDDSEKNPSKASQSSRDTLSSGVHSWSSQAEARSSSWNMVLARGRPTDTPSYFNGVKVQIQSLNGEHLHIREFHRVKVGDIATGISSQIPAAAFSLVTKDGQPVRYDMEVPDSGIDLQCTLAPDGSFAWSWRVKHGQLENRP
Turning to B6, the binding entry with SIVA2 (human) [5] was “binds”.

B7: SIVA2 1-81 (protein)
chain: MPKRSCPFADVAPLQLKVRVSQRELSRGVCAERYSQEVFDPSGVASIACSSCVRAVDGKAVCGQCERALCGQCVRTCWGCG
Take B7: the binding entry with FLAG tagged TRAF2 is recorded as “binds”.
